Here are results for 42 sequences from PMC7819943, “Rice protein-binding microarrays: a tool to detect cis-acting elements near promoter regions in rice”.

By UniProt entry, the sequences of proteins in these tests, tags left out.
UniProt Q0JBA9, entry or part of it: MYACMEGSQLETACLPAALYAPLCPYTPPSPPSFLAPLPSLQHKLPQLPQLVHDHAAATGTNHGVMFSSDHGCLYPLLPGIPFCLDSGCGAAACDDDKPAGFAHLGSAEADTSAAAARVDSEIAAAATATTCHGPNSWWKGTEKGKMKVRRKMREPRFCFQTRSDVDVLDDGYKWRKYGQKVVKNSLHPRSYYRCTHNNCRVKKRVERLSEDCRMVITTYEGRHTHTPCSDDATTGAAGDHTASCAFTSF

This is one part of the list.

For the assay, the target named is OsWRKY34 (Oryza sativa, UniProt Q0JBA9 1-250). Description: protein-binding microarray (RPBM); PBS, 2% BSA, 51.3 ng/ul salmon testes DNA, 50 uM zinc acetate, 200 nM TF, 25 C, 1 h; high values mean tight binding. To be noted: protein: recombinant; tags: N-terminal polyhistidine and DsRed monomer fusion (pET32a); label: CyDye5-dUTP incorporated in the synthesized complementary strand; 3' TTTTT single-stranded linker to array surface; dsDNA, one strand shown. In short, it runs like this:
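The binding signal is fluorescence intensity per feature, in arbitrary units, read on an Axon 4000B scanner. Polyhistidine- and DsRed-tagged transcription factors (N-terminal fusions) from E. coli BL21-CodonPlus were purified on Ni–NTA and applied at 200 nM for 1 h at 25 °C to a double-stranded, BSA-blocked custom Agilent array in buffer with 50 µM zinc acetate.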
Consider “TGGCGTTGCTACTACTACTAATCTCTTATCCGCTTCTTAACGGAGTCACCTAGTGCAG”, for which the binding signal is 8280 fluorescence intensity (a.u.). Regarding “AGTACCCCTCACCCTGCTCCTCGTCGCTCCACCAAAATCCCGGAGTCACCTAGTGCAG”, the binding signal was 8720 fluorescence intensity (a.u.). To “TTCCACCTTGTAGCTCTGCACAATTTTATTTTCTGTTATCCGGAGTCACCTAGTGCAG” belongs 12000 fluorescence intensity (a.u.); to “AGGTCAATTTTAGTAATGTTCTTTTGGGGTTCAAAACACACGGAGTCACCTAGTGCAG”, 9910 fluorescence intensity (a.u.). To “CGCCCATCGCCGGCTGCCCCGCCAGCCTCCTCCGCAGTCCCGGAGTCACCTAGTGCAG” belongs 8240 fluorescence intensity (a.u.).

For “TTCTGATATCTGGTCATATTTTTTTGAACAGGTAGCTATTCGGAGTCACCTAGTGCAG”, the binding signal was 27000 fluorescence intensity (a.u.). Then “ATAGGCAGTCGCTCGTATACACTCATCTCTGTAAATGTACCGGAGTCACCTAGTGCAG”, with 8760 fluorescence intensity (a.u.); and “TGACAATTTAAAGGACCTGAAGTGAACGGCCTACTCTAATCGGAGTCACCTAGTGCAG”, with 8920 fluorescence intensity (a.u.). Then “TTTAGCCCATTTCTCCATACATAAACTGTTTTATATTTGACGGAGTCACCTAGTGCAG”, with 8360 fluorescence intensity (a.u.). To “TGGATCGTTCATTCGTTTTATGTGTCCGAGGCATTATTGGCGGAGTCACCTAGTGCAG” belongs 9650 fluorescence intensity (a.u.); to “ATGCTTCATAACCATCCCGTTCGTGCTCTTAGCCTCTTACCGGAGTCACCTAGTGCAG”, 9140 fluorescence intensity (a.u.); to “CTACAGACATTAACCTTTTTTGTGGTGGGTTCTAGCTCTACGGAGTCACCTAGTGCAG”, 12800 fluorescence intensity (a.u.). For the sequence “CCGCCTCCGCACTGCATTCCTTCCAGTTCGTTTCGTTGCCCGGAGTCACCTAGTGCAG”, the binding signal is 8020 fluorescence intensity (a.u.). To “CTGCCATTACTCCGATTTCCGTCTCTTTCCGCTGCTTCGTCGGAGTCACCTAGTGCAG” belongs 12500 fluorescence intensity (a.u.). To “CTTCGTTGGTAATCCGGTTGATTTCGGACTAATTAGTTGTCGGAGTCACCTAGTGCAG” belongs 8520 fluorescence intensity (a.u.); to “TCCCGAGCCTTCACTGTTGTCACTTCCATCGGCATCCGTTCGGAGTCACCTAGTGCAG”, 13800 fluorescence intensity (a.u.); to “ATCCTTGCCCTGCTATCATTGGTTCCTCGTATAAAGTTCACGGAGTCACCTAGTGCAG”, 11100 fluorescence intensity (a.u.). With “GGTCTTTCTGTTCCGTATGGACCGCTTGTGTATTCTGTCACGGAGTCACCTAGTGCAG”, the binding signal was 12000 fluorescence intensity (a.u.). Then “CCTGCATCATTGGGAGCTCTCTCTCCTTCCCTTCTTTTCTCGGAGTCACCTAGTGCAG”, with 8220 fluorescence intensity (a.u.); and “CCGCACAATCCGCGCCGCCATCAGTTCGCTCTCGCCACCACGGAGTCACCTAGTGCAG”, with 9020 fluorescence intensity (a.u.).

Take “CTCATTCCTTTGATAAAAATAATGTGTGTTTTTTCTGCTACGGAGTCACCTAGTGCAG”: the binding signal is 8590 fluorescence intensity (a.u.). Then “TCCACGTGAAGACGACCTCGACACATGCCCAATATTTCCACGGAGTCACCTAGTGCAG”, with 8940 fluorescence intensity (a.u.); and “GTCTCGCTCACGCAGTCACCCGCACGCGTGGCGCCCACTCCGGAGTCACCTAGTGCAG”, with 8350 fluorescence intensity (a.u.). On to “GTTTCACCGGGCAACAAGGATGTTTGCCCGTGCAGTTTGACGGAGTCACCTAGTGCAG”, for which the binding signal is 8100 fluorescence intensity (a.u.). To “TTGTTTTTTTTTCGTCTGCTTTACCAACACAGGCCATGGTCGGAGTCACCTAGTGCAG” belongs 8050 fluorescence intensity (a.u.); to “TGTTCTCAAATCGATCTCTGTCTCCGGCTCCACTTCGGTCCGGAGTCACCTAGTGCAG”, 8660 fluorescence intensity (a.u.); to “GTCTTATTGTGGTTGGGAGTTTAACGGTGTACCGAAGAAACGGAGTCACCTAGTGCAG”, 8780 fluorescence intensity (a.u.).

Consider “CATTGCTGACCCAAGAGACCGTCTCATATGCTTCATTTCTCGGAGTCACCTAGTGCAG”, for which the binding signal was 10300 fluorescence intensity (a.u.). As for “AAGAACATTGTGACATTGGATTTCTTTTCTTCTTTTTTTTCGGAGTCACCTAGTGCAG”, the binding signal was 8760 fluorescence intensity (a.u.). To “CCTCTCATCGTATTCATGCTTTCTCCTGTCATTCTGTCGACGGAGTCACCTAGTGCAG” belongs 8570 fluorescence intensity (a.u.).

Take “ATAACTGCTCACCGAGGTAAATCTCTAGTTCCAGACATTTCGGAGTCACCTAGTGCAG”: the binding signal is 9770 fluorescence intensity (a.u.). To “AAGAATACTTCAGTTTGGATAAGCACGTAATGACCAAATCCGGAGTCACCTAGTGCAG” belongs 8330 fluorescence intensity (a.u.); to “GCCTGATGCTGGTTTCTACAAAATATTGATGTTTTTCATGCGGAGTCACCTAGTGCAG”, 8580 fluorescence intensity (a.u.). Then “TGTCTTATTCTTGTCGATGTTAGAGTTTTTTTTTAACAGTCGGAGTCACCTAGTGCAG”, with 8140 fluorescence intensity (a.u.); and “TGTGGTTCAGTAATTGGTAATGGTATGTCTAGAGAAAATACGGAGTCACCTAGTGCAG”, with 9430 fluorescence intensity (a.u.).

For “AAATTTCGGGGTGGGATCTAAACATAGCCTAAAAACAGAACGGAGTCACCTAGTGCAG”, the binding signal was 11500 fluorescence intensity (a.u.).

As for “CACACATGTACAAATTTTACGCTGGATTTTATTTTCTGTTCGGAGTCACCTAGTGCAG”, the binding signal was 8620 fluorescence intensity (a.u.).

Regarding “CTCGCTCTCGCCGCCGCTCGGAAGCGGTCGCCGGCGTCATCGGAGTCACCTAGTGCAG”, the binding signal is 9100 fluorescence intensity (a.u.). To “TTGGTCAACTGTAACATTTGACCATCCGATTTTTTTTAGACGGAGTCACCTAGTGCAG” belongs 8390 fluorescence intensity (a.u.); to “ATCTTTTCTCTTCTCGACTTCTCGTATGCCGCGTCCCGTCCGGAGTCACCTAGTGCAG”, 11100 fluorescence intensity (a.u.).

Turning to “CCTGTATATATGCTCGCATTGTGTCCAACCTTTCGCATCACGGAGTCACCTAGTGCAG”, the binding signal was 9560 fluorescence intensity (a.u.).

For “AAACGGGCTGACTCATCATCACTCATCCAATTCCCATCCCCGGAGTCACCTAGTGCAG”, the binding signal is 8760 fluorescence intensity (a.u.).
